For one substance, binding results are on record in publication PMC6194124.

Chains of the proteins cited; added tags and fusions are not shown. Residues count along the entry.
UniProt Q925U4: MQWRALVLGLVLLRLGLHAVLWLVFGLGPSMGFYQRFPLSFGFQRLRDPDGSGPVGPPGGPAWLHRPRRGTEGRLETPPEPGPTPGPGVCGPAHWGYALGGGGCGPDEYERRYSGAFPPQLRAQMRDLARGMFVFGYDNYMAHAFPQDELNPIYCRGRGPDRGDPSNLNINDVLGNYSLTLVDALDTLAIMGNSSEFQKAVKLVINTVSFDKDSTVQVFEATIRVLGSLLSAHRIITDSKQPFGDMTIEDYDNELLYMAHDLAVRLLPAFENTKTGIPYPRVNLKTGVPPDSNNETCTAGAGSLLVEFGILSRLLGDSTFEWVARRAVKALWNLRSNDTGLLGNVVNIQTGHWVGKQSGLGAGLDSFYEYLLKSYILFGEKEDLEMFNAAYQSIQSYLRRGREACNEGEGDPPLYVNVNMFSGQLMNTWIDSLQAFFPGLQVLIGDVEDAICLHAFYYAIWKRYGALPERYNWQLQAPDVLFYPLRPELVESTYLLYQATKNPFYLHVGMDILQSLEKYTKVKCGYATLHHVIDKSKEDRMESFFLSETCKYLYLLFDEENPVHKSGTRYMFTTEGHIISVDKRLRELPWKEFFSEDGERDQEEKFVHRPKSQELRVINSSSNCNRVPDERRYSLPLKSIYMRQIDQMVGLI
UniProt P07237, residues 18-508: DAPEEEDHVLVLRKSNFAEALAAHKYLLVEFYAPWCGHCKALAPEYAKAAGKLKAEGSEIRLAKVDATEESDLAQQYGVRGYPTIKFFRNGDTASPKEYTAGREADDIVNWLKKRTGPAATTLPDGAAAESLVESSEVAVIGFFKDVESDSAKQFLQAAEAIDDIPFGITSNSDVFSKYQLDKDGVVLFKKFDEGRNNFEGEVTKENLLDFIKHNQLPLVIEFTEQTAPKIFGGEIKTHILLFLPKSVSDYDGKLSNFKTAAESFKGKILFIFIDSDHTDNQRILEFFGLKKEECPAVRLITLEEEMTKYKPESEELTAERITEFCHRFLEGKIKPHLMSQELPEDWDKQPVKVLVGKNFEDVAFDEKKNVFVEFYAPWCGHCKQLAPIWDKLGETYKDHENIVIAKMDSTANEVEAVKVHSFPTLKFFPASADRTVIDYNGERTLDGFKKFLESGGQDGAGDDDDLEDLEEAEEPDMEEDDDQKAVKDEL

One assay concerns the target T1, EDEM2-HA (UniProt Q9BV94).
T1 sequence: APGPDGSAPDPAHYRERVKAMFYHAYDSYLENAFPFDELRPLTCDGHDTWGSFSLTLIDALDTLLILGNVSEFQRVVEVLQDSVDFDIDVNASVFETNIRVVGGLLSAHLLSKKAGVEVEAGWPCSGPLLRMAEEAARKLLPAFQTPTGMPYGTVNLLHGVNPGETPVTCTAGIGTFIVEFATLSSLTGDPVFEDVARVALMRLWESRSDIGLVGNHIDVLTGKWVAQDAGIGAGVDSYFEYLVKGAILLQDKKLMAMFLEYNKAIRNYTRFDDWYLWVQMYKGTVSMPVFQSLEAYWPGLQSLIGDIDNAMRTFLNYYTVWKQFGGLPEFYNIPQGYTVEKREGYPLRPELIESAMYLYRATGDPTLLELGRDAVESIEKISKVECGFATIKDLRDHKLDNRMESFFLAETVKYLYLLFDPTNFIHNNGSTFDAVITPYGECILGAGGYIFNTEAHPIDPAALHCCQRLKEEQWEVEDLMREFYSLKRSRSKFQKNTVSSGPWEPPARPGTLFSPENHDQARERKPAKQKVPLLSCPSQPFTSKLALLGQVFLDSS
Put plainly: co-IP; HEK 293 cells expressing EDEM1-HA or EDEM2-HA with FLAG-TXNDC11 or FLAG-PDI; lysed in mild conditions (1% NP-40, 50 mM Tris/HCl pH 8, 150 mM NaCl); immunoprecipitated with anti-EDEM1 or anti-EDEM2, immunoblotted with anti-FLAG.

For a further assay, the target named is EDEM1-HA (UniProt Q925U4). Described as above.

These are yes or no findings as the source states them, for the method shown. In cells and extracts the contact can be indirect. Some entries that bind do so weakly or less than the wild type. For some assays here: Sequences can lack the tags named with a protein.

With “FLAG-PDI (from UniProt P07237 18-508) (enzyme)”, the binding result is on record as “binds” with EDEM2-HA and “binds weakly” with EDEM1-HA.
